Assay results from US8557823B2, “Family of PFKFB3 inhibitors with anti-neoplastic activities” (Advanced Cancer Therapeutics, LLC, priority 2007, dated 2013).
For at least one compound, name, drawing or mass did not settle the structure.

Protein sequences, listed by entry. Tags and fused reporters are not part of them. Lines headed by an entry give the natural chain unless they say otherwise; changes in a name come on top.
UniProt Q16875: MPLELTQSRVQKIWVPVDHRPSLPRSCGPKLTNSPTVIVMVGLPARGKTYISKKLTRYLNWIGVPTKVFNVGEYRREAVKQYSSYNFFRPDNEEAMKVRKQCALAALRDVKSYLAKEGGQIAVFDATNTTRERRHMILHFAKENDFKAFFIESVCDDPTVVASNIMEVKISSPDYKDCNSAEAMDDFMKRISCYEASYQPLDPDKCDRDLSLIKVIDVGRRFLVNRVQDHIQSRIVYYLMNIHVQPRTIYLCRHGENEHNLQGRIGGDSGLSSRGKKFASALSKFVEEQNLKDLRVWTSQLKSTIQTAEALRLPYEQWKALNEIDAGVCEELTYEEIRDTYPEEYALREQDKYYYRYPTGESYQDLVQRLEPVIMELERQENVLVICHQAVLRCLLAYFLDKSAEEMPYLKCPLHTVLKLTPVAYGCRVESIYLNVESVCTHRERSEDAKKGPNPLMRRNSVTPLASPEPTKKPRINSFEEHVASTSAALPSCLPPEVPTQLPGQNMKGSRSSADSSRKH

Experiments:
[1] = tested on: NHBE cells; assay: In vitro growth inhibition, primary NHBE cells (trypan blue exclusion); assay type: cell-based, human; conditions: up to highest concentration tested (33 μM), 48 hours
[2] = tested on: Jurkat leukemia cells; assay: In vitro growth inhibition, Jurkat; assay type: cell-based
Experimental: The K562, HL-60, MDA-MB231, and melanoma (CRL-11174) human cancer cell lines were purchased from ATCC (American Tissue Type Culture Collection, Manassas, Va., United States of America). HeLa, A549, Lewis Lung Carcinoma, MDA-MB231, and melanoma cells were grown in Dulbecco's Modified Eagle Medium (DMEM) (Hyclone, Logan, Utah, United States of America) supplemented with 10% fetal bovine serum (Hyclone, Logan, Utah, United States of America) and 50 μg/mL gentamicin sulfate (Invitrogen, Carlsbad, Calif., United States of America). The HL-60, K562, and Jurkat cell lines were grown in RPMI-1640 medium (Hyclone, Logan, Utah, United States of America) supplemented with 10% fetal bovine serum and 50 μg/mL gentamicin sulfate. […]
Cells were collected 48 hours post-treatment, and cell number and viability were determined by trypan blue exclusion. […]

[3] = tested on: Jurkat cells; assay: Cell cycle analysis by flow cytometry; assay type: cell-based; conditions: 10 μM
[4] = tested on: Jurkat cells; assay: 2-Deoxy-glucose uptake (14C-2-DG), Example 3; assay type: cell-based; conditions: 10 μM, within 4 hours of exposure
[5] = tested on: Jurkat cells; assay: Fructose-2,6-bisphosphate assay in cells; assay type: cell-based; conditions: 10 μM, within 4 hours of exposure
[6] = tested on: Jurkat cells; assay: Lactate measurements (lactate oxidase colorimetric assay); assay type: cell-based; conditions: 10 μM, 8 hrs
[7] = tested on: Jurkat cells; assay: NAD+ and NADH levels; assay type: cell-based; conditions: 10 μM
[8] = tested on: Jurkat cells; assay: Whole cell ATP; assay type: cell-based; conditions: 10 μM, 24 hrs
[9] = tested on: Jurkat cells; assay: 13C-glucose NMR tracking of glycolytic flux; assay type: cell-based; conditions: 10 μM, 36 hours
[10] = tested on: Lewis lung carcinoma xenograft; assay: Micro-PET 18F-2-DG uptake in xenograft bearing mice; assay type: in vivo; conditions: 0.07 mg/g i.p., 30 minutes before 18F-2-DG
[11] = biological target: PFKFB3 (Homo sapiens, UniProt Q16875); assay: PFKFB3 enzyme-coupled kinetics assay (pyruvate kinase/lactate dehydrogenase, NADH consumption)

Q: What does the source list for `O=C(/C=C/c1cccnc1)c1ccncc1` [Compound 1, 3-(3-pyridinyl)-1-(4-pyridinyl)-2-propen-1-one]?
A: susceptibility of primary NHBE cells [1]: no significant susceptibility; effect on Jurkat cell proliferation ([2]; 0.3 μM, 36 hours): decrease in cell proliferation; effect on Jurkat cell proliferation ([2]; 10 μM, over 36 hours): completely inhibited proliferation; cell cycle effect [3]: G2/M phase cell cycle arrest; 2-DG uptake [4]: markedly reduced; Fru-2,6-BP [5]: markedly reduced; lactate secretion [6]: decrease; NADH ([7]; 16 hrs): decrease; NAD+ ([7]; 24 hrs): decrease; ATP [8]: decrease; direct glycolytic flux to lactate (13C-glucose) [9]: suppressed; 18F-2-DG uptake within the xenograft [10]: significantly diminished; inhibition mechanism (Lineweaver-Burke plot) [11]: mixed inhibition mechanism
